Laboratory results taken from PubChem BioAssay AID2517 (National Center for Advancing Translational Sciences (NCATS), 2010).
Several values for one entry are separate records, joined by “and”; a condition that tells them apart may be missing. Equal entries are not always repeated. About 1,200 (0.34%) of roughly 350,000 compounds were called active. The inconclusive results got no clear call from the source; some entries with a clear call stand among them for comparison. Calls come from the whole dose curve; as a rule, active = well fitted inhibition curve with a large enough effect; inconclusive = small, poorly fitted or top-dose-only effect; inactive = no such curve, though single readings can be large or run the other way. A potency beside an inconclusive call is a rough fit, not a confirmed value.

The chains behind the UniProt entries cited, without tags or fusion partners.
UniProt P27695, whole entry, looked up: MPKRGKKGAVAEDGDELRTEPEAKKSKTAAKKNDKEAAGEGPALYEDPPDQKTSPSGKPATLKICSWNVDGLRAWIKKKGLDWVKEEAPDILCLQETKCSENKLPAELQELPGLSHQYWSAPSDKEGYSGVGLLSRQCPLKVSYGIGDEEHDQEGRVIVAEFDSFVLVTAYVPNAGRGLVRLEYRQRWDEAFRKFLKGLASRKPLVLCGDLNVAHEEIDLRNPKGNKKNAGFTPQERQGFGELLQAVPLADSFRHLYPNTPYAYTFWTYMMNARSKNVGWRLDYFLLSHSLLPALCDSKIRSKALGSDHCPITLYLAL

These compounds were tested against DNA repair nuclease/redox regulator APEX1 (Homo sapiens) (UniProt P27695) (assay: qHTS Assay for Inhibitors of the Human Apurinic/apyrimidinic Endonuclease 1 (APE1)). Settings: recombinant APE1, TAMRA/BHQ-2 abasic DNA cleavage fluorescence; series mostly up to 65.8 µM.
Outline: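 Incision of a quenched TAMRA/BHQ-2 THF abasic-site duplex (50 nM) by 0.75 nM APE1, after 15 min compound preincubation, measured as fluorescence increase over three 60 s reads. Values normalized to buffer, DMSO and NSC13755 control wells.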
Note: nearly all actives have a fitted effect of over 55% in size.
Potency is the fitted concentration of half-maximal effect.

**Q.** With `COC(=O)c1ccc(C(=O)OC)c(NC(=S)N2CCN(c3cc(Cl)ccc3C)CC2)c1` as the compound, how does the Potency read?
**A.** inconclusive: 0.0006 µM [inhibitor]

**Q.** `CCc1ccc(OCC(=O)N/N=C(\C)c2ccc3c(c2)OCCO3)cc1` was tested. Which Potency did it give?
**A.** inconclusive: 6.31 µM [inhibitor, single point]

**Q.** `Cc1c(NC(=O)c2ccc(CN3CCc4ccccc4C3)cc2)c(=O)n(-c2ccccc2)n1C` was tested. Which Potency did it give?
**A.** inconclusive: 7.94 µM [inhibitor, single point]

**Q.** How did the Potency turn out when `O=C1CCCC(O)=C1N=Nc1ccc2c(c1)OCO2` was run?
**A.** inactive

**Q.** For `O=C(N/N=C/c1ccc([N+](=O)[O-])s1)c1cccc(Br)c1`, which Potency is on record?
**A.** active: 22.4 µM

**Q.** Which Potency does the source give for `Cc1cc(=O)[nH]c2ccc(Cl)cc12` here?
**A.** inactive

**Q.** How did the Potency turn out when `C=CCN(CC=C)C(=O)C(=O)c1ccn(-c2c(C)csc2C(=O)OC)c1` was run?
**A.** inconclusive: 3.98 µM [inhibitor, partial curve, poor fit]

**Q.** With `O=C(CSc1nnc(CNC(=O)c2c(F)cccc2Cl)o1)NCc1ccc(F)cc1` as the compound, how does the Potency read?
**A.** inactive

**Q.** With `CCOC(=O)C1CCN(C(=O)Nc2ccc(OC(F)(F)F)cc2)CC1` as the compound, how does the Potency read?
**A.** inconclusive: 50.1 µM [inhibitor, partial curve, poor fit]

**Q.** With `NC(=O)CC1NC(=O)c2cc([N+](=O)[O-])cc(I)c2OCCC(C(N)=O)NC(=O)[C@@H]2CCCN2C1=O` (stereo not given in full) as the compound, how does the Potency read?
**A.** inconclusive: 7.94 µM [inhibitor, single point]

**Q.** Which Potency does the source give for `CCN(CC)C(=O)CSc1nc(-c2ccccc2)ccc1C#N` here?
**A.** inconclusive: 5.01 µM [inhibitor, single point]

**Q.** How did the Potency turn out when `Cc1ccc(N(C(=O)Cn2nnc(-c3ccc(C)o3)n2)C(C(=O)NC2CCCC2)c2ccco2)cc1` (stereo not given) was run?
**A.** inconclusive: 8.91 µM [inhibitor, single point]

**Q.** With `CCN(CC)CCN(C)Cc1ccc(Br)cc1` as the compound, how does the Potency read?
**A.** inconclusive: 3.55 µM [inhibitor, single point]

**Q.** With `Cc1cccc(C=Nc2ccc3c(c2)oc2ccccc23)c1O` as the compound, how does the Potency read?
**A.** inactive

**Q.** With `CC(=O)Nc1ccc(Sc2ccccc2C(=O)O)c(C(=O)O)c1` as the compound, how does the Potency read?
**A.** inconclusive: 25.1 µM [inhibitor, single point]

**Q.** Which Potency does the source give for `CC1(C)CC(=O)/C(=C(/O)CCCN2C(=O)c3ccccc3C2=O)C(=NC(C)(C)C)C1` here?
**A.** inactive

**Q.** `C#CCOCCOCCOCCNc1nc(N2CCN(C(=O)CCCCCCCCCCNC(=O)[C@H](CCCCN)n3cc(CCCC(=O)O)nn3)CC2)nc(N2CCN(C(=O)CCCCCCCCCCNC(=O)[C@H](CCCCN)n3cc(CCCC(=O)O)nn3)CC2)n1` was tested. Which Potency did it give?
**A.** inactive

**Q.** How did the Potency turn out when `C[C@H](CO)N1C[C@H](C)[C@@H](CN(C)S(=O)(=O)c2ccccc2)Oc2c(cccc2N(C)C)C1=O` was run?
**A.** inactive

**Q.** Which Potency does the source give for `Cc1ccc2nc(NC(=O)C3CCN(S(=O)(=O)c4cccnc4)CC3)sc2c1` here?
**A.** inconclusive: 44.7 µM [inhibitor, single point]

**Q.** How did the Potency turn out when `O=C(O)c1cccc(-n2cccc2C=C2C(=O)c3ccccc3C2=O)c1` was run?
**A.** inconclusive: 25.1 µM [inhibitor, partial curve, poor fit]

**Q.** For `O=S(=O)(c1ccccc1)n1ccc(-c2cnc(-c3ccccc3)s2)n1`, which Potency is on record?
**A.** inconclusive: 14.1 µM [inhibitor, partial curve, poor fit]

**Q.** With `O=C(CSc1ncccc1-c1nc2ccccc2[nH]1)NCc1ccco1` as the compound, how does the Potency read?
**A.** inconclusive: 25.1 µM [inhibitor, partial curve, poor fit]

**Q.** `CCOc1cc(CNn2cn[nH]c2=S)cc(Cl)c1OCc1ccccc1F` was tested. Which Potency did it give?
**A.** inconclusive: 44.7 µM [inhibitor, single point]

**Q.** For `CCOC(=O)Cc1nc(-c2ccc(Cl)cc2)n[nH]1`, which Potency is on record?
**A.** inconclusive: 3.55 µM [inhibitor, full curve]

**Q.** Which Potency does the source give for `O=C1C(=O)c2ccc(-c3ccccc3)cc2-c2ccccc21` here?
**A.** inactive

**Q.** `O=C(NCCc1ccccc1)c1ncn[nH]1` was tested. Which Potency did it give?
**A.** inconclusive: 3.55 µM [inhibitor, single point]

**Q.** With `C=CCn1c(SCc2nc3sc(C(=O)O)c(C)c3c(=O)[nH]2)nnc1-c1ccc(C(C)(C)C)cc1` as the compound, how does the Potency read?
**A.** inconclusive: 35.5 µM [inhibitor, single point]

**Q.** How did the Potency turn out when `COC(=O)C1=NOC2(C=C(Br)C(OC)=C(Br)C2=O)C1` (stereo not given) was run?
**A.** inconclusive: 4.47 µM [inhibitor, single point]

**Q.** With `Cc1cc(C(=O)CSc2nnc(-c3cccnc3)n2-c2ccccc2F)c(C)n1CC1CCCO1` (stereo not given) as the compound, how does the Potency read?
**A.** inconclusive: 39.8 µM [inhibitor, single point]

**Q.** `COc1ccc(CC(=O)N/N=C/c2ccc(-c3cccc(C(=O)O)c3)o2)cc1OC` was tested. Which Potency did it give?
**A.** inconclusive: 20 µM [inhibitor, single point]

**Q.** How did the Potency turn out when `O=C(CSc1ccsc1[N+](=O)[O-])N1CCN(c2ccccc2)CC1` was run?
**A.** inconclusive: 28.2 µM [inhibitor, single point]

**Q.** `CC1CCCN(CCC(=O)Nc2ccc3c(c2)CCC3)C1` (stereo not given) was tested. Which Potency did it give?
**A.** inconclusive: 5.01 µM [inhibitor, full curve]

**Q.** How did the Potency turn out when `COc1cc([N+](=O)[O-])cc(/C=N/NC(=O)CSc2ccccn2)c1O` was run?
**A.** inactive

**Q.** Which Potency does the source give for `CCOC(=O)CNC(=O)c1ccc2[nH]c3ccccc3c2c1` here?
**A.** inconclusive: 1.58 µM [inhibitor, full curve, poor fit]

**Q.** With `COc1cc(/C=N/NC(=O)c2cc(-c3c(C)nn(-c4ccccc4)c3C)n[nH]2)ccc1O` as the compound, how does the Potency read?
**A.** inconclusive: 44.7 µM [inhibitor, single point]

**Q.** With `N[C@@H](Cc1cc(CP(=O)(O)O)cc(-c2ccccc2Cl)c1)C(=O)O` as the compound, how does the Potency read?
**A.** inactive and inconclusive: 17.8 µM [inhibitor, partial curve, poor fit]

**Q.** For `Cc1ccc(S(=O)(=O)Oc2ccc(N3C(=O)C4C5CCC(C5)C4C3=O)cc2)cc1` (stereo not given), which Potency is on record?
**A.** inconclusive: 10 µM [inhibitor, partial curve]

**Q.** `COc1ccc(NC(=O)/C=C2\SC(=O)NC2=O)cc1` was tested. Which Potency did it give?
**A.** inconclusive: 25.1 µM [inhibitor, single point]

**Q.** With `Clc1ccccc1CN1CCN(CCCc2ccccc2)CC1` as the compound, how does the Potency read?
**A.** inconclusive: 2.24 µM [inhibitor, partial curve]

**Q.** For `C=CCn1c(NC(=O)c2ccc(Br)o2)c(S(=O)(=O)c2ccccc2)c2nc3ccccc3nc21`, which Potency is on record?
**A.** inconclusive: 44.7 µM [inhibitor, single point]

**Q.** For `Cc1ccc(N2CCN(C(=O)c3ccccc3NC(=O)C3CC=CCC3C(=O)O)CC2)cc1` (stereo not given), which Potency is on record?
**A.** inactive

**Q.** `COC(=O)c1cc(NC(=O)Nc2ccccc2OC)cc(C(=O)OC)c1` was tested. Which Potency did it give?
**A.** inconclusive: 0.631 µM [inhibitor, partial curve]

**Q.** For `COc1ccc2c(c1)OC(=O)CC2c1ccccc1OC` (stereo not given), which Potency is on record?
**A.** inactive

**Q.** For `Nc1nc(-c2ccccc2)cn1/N=C/c1ccccc1`, which Potency is on record?
**A.** inconclusive: 31.6 µM [inhibitor, single point]

**Q.** Which Potency does the source give for `Cc1ccc(C(=O)NCCOc2cccc(C)c2)cc1` here?
**A.** inactive

**Q.** `O=C(COC(=O)C1c2ccccc2Oc2ccccc21)Nc1ccc2c(c1)OCO2` was tested. Which Potency did it give?
**A.** inconclusive: 22.4 µM [inhibitor, partial curve]

**Q.** `Cc1ccc(N(CC(=O)Nc2c(C)n(C)n(-c3ccccc3)c2=O)S(C)(=O)=O)c(C)c1` was tested. Which Potency did it give?
**A.** inconclusive: 20 µM [inhibitor, single point]

**Q.** Which Potency does the source give for `CCOc1ccc(S(=O)(=O)Nc2ccc(F)cc2)c(C)c1C` here?
**A.** inconclusive: 0.0316 µM [inhibitor, full curve, poor fit]

**Q.** Which Potency does the source give for `Cc1cc(/C=N/Nc2ccc([N+](=O)[O-])cn2)c(C)n1-c1ccc(C(=O)O)cc1` here?
**A.** inconclusive: 35.5 µM [inhibitor, single point]

**Q.** `CCOc1ccc(CN(C)CC(=O)Nc2cc(OC)c([N+](=O)[O-])cc2C)cc1` was tested. Which Potency did it give?
**A.** inconclusive: 3.55 µM [inhibitor, partial curve]

**Q.** Which Potency does the source give for `C=C1C=CS(=O)(=O)N(C(C)C(=O)OC)C1` (stereo not given) here?
**A.** inactive

**Q.** With `NNC(=O)C1CC(O)CN1S(=O)(=O)c1ccc(Cl)cc1` (stereo not given) as the compound, how does the Potency read?
**A.** inconclusive: 25.1 µM [inhibitor, single point]

**Q.** Which Potency does the source give for `CCN(Cc1cc2ccc(C)cc2[nH]c1=O)C(=O)c1ccncc1` here?
**A.** inconclusive: 2.24 µM [inhibitor, full curve, poor fit]

**Q.** How did the Potency turn out when `Cc1ccsc1/C=C(\C#N)C(=O)NC1CCS(=O)(=O)C1` (stereo not given) was run?
**A.** inconclusive: 44.7 µM [inhibitor, partial curve, poor fit]

**Q.** Which Potency does the source give for `CCn1c(CSc2nc3ccccc3[nH]2)nc2cc(C(=O)O)ccc21` here?
**A.** inactive

**Q.** For `COc1cc(N/N=C/c2ccc(N(C)C)cc2)ncn1`, which Potency is on record?
**A.** inactive

**Q.** With `CCOC(=O)N1CCN(C(=O)COc2cccc3c2CCN(Cc2ccccc2F)C3=O)CC1` as the compound, how does the Potency read?
**A.** inconclusive: 22.4 µM [inhibitor, single point]

**Q.** With `O=C(N/N=C/c1ccco1)c1cccc(S(=O)(=O)Nc2ccccc2Cl)c1` as the compound, how does the Potency read?
**A.** inconclusive: 35.5 µM [inhibitor, single point]

**Q.** With `CCCc1cc(=O)oc2cc(C)c(CN3CCCC3)c(O)c12` as the compound, how does the Potency read?
**A.** inconclusive: 25.1 µM [inhibitor, partial curve]

**Q.** With `COc1ccc(N2C3=C(CC4=C2CCCC4=O)C(=O)CCC3)cc1` as the compound, how does the Potency read?
**A.** inactive

**Q.** With `Cc1cccc(-n2ncc3c(N4CCc5ccccc54)ncnc32)c1` as the compound, how does the Potency read?
**A.** inconclusive: 35.5 µM [inhibitor, single point]

**Q.** `Cc1cc(OCC(=O)c2ccc(C(F)(F)F)cc2)n2cnnc2n1` was tested. Which Potency did it give?
**A.** inconclusive: 2.82 µM [inhibitor, single point]

**Q.** How did the Potency turn out when `O=C(COC(=O)c1cc[n+]([O-])cc1)Nc1ccc([N+](=O)[O-])cc1` was run?
**A.** inconclusive: 0.0112 µM [inhibitor, full curve, poor fit]

**Q.** Which Potency does the source give for `COc1ccc2c(c1)OC13CCCCC1C2C(C(=O)c1ccccc1)C(=O)N3` (stereo not given) here?
**A.** inconclusive: 1.58 µM [inhibitor, full curve, poor fit]

**Q.** For `O=C(C[C@@H]1C/C=C\CCCC(=O)OC[C@@H]2CCCN2C1=O)NCCO`, which Potency is on record?
**A.** inconclusive: 11.9 µM [inhibitor, partial curve]
